Data source: PubChem BioAssay AID504804 (Drosophila RNAi Screening Center, 2011)

Purpose: 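Knock-downs shielding fly cells from apoptosis caused by DNA damage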 (primary screen)
Cell system: Drosophila Kc cells
Reagent: long dsRNA against Drosophila genes, 0.5 µg dsRNA per well
Timing: 96 h (48 h knock-down, then 48 h drug)
Treatment: doxorubicin 5 µg/ml for 48 h, added 48 h after dsRNA
Read-out: 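Luminescent ATP counts per replicate, not normalised, reflecting viable cells after 48 h dsRNA knock-down followed by 48 h of 5 µg/ml doxorubicin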
Direction: raw ATP luminescence: higher = more viable cells, protection from doxorubicin
Call rule: 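z-score of 2 or more over plate mean in both duplicates, retained only when retests and separate dsRNAs confirm the protection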
The deposit covers about 19,000 reagents; this is an unselected part of those with a known target gene and a result. In the full data, 47 (0.25%) are marked active. 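Signals are raw, not normalised; exact z-scores behind calls not deposited; actives needed confirmation, so some wells reaching 2 SD are inactive.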 A plus sign joins genes that one reagent is predicted to hit.

| target | DRSC id | raw ATP luminescence, replicate 1 | raw ATP luminescence, replicate 2 | Outcome |
| --- | --- | --- | --- | --- |
| CG15599 | DRSC19668 | 3.31e5 | 3.26e5 | inactive |
| CG42594 | DRSC18053 | 11610 | 12230 | inactive |
| CG42594 | DRSC18408 | 56010 | 56170 | inactive |
| Mal-A6 (Maltase A6) | DRSC07233 | 25797 | 68730 | inactive |
| CG34178 + CG34177 | DRSC00351 | 23110 | 26333 | inactive |
| Doa (Darkener of apricot) | DRSC13892 | 2.74e5 | 2.23e5 | inactive |
| Doa (Darkener of apricot) | DRSC13893 | 2.26e5 | 1.95e5 | inactive |
| Doa (Darkener of apricot) | DRSC13895 | 2.49e5 | 2.01e5 | inactive |
| Doa (Darkener of apricot) | DRSC13896 | 2.54e5 | 2.07e5 | inactive |
| Doa (Darkener of apricot) | DRSC13897 | 2.43e5 | 2.24e5 | inactive |
| CheA75a (Chemosensory protein A 75a) | DRSC10807 | 45203 | 35220 | inactive |
| CG17929 | DRSC15291 | 96110 | 77030 | inactive |
| CG8870 | DRSC16452 | 86270 | 85850 | inactive |
| CG34163 | DRSC01219 | 3.44e5 | 2.86e5 | inactive |
| CG15213 | DRSC10213 | 84513 | 77427 | inactive |
| CG31735 | DRSC01518 | 2.75e5 | 2.28e5 | inactive |
| Mst57Da + alpha4GT2 | DRSC13732 | 2.62e5 | 2.31e5 | inactive |
| WASp | DRSC15032 | 51200 | 44560 | inactive |
| RpS26 (Ribosomal protein S26) | DRSC03420 | 27303 | 38063 | inactive |
| CG31784 | DRSC01574 | 2.90e5 | 2.51e5 | inactive |
| Cngl (Cyclic nucleotide-gated ion channel-like) | DRSC20318 | 1.40e5 | 1.81e5 | inactive |
| CG13255 | DRSC11702 | 71283 | 63530 | inactive |
| CG3788 | DRSC04418 | 42283 | 49953 | inactive |
| Oseg1 (Outer segment 1) | DRSC10776 | 47190 | 39323 | inactive |
| CG8060 | DRSC07064 | 71880 | 54953 | inactive |
| CG34425 | DRSC12210 | 60873 | 57670 | inactive |
| CG17738 | DRSC15257 | 57433 | 51683 | inactive |
| Pglym87 (Phosphoglyceromutase 87) | DRSC15252 | 53277 | 25677 | inactive |
| CG10347 | DRSC19352 | 3.01e5 | 3.16e5 | inactive |
| CG42544 | DRSC12451 | 82300 | 55997 | inactive |
| CG32718 | DRSC17538 | 2.09e5 | 2.33e5 | inactive |
| eIF3h (eukaryotic translation initiation factor 3 subunit h) | DRSC01995 | 90473 | 48613 | inactive |
| OS9 + Hf | DRSC03392 | 94967 | 54077 | inactive |
| CG15021 | DRSC08475 | 83147 | 77107 | inactive |
| Rhp (Rhophilin) | DRSC20279 | 3.65e5 | 3.29e5 | inactive |
| CtsF (Cathepsin F) | DRSC12056 | 73513 | 75593 | inactive |
| CtsF (Cathepsin F) | DRSC12195 | 46870 | 56160 | inactive |
| CtsF (Cathepsin F) | DRSC12196 | 76093 | 59213 | inactive |
| Jhbp14 (Juvenile hormone binding protein 14) | DRSC01988 | 47320 | 57400 | inactive |
| step (steppke) | DRSC03694 | 33837 | 33180 | inactive |
| step (steppke) | DRSC03699 | 76787 | 58313 | inactive |
| Src64B (Src oncogene at 64B) | DRSC08700 | 86003 | 97390 | inactive |
| Bgb | DRSC08148 | 61770 | 66677 | inactive |
| Dscam1 (Down syndrome cell adhesion molecule 1) | DRSC05047 | 90640 | 85967 | inactive |
| Dscam1 (Down syndrome cell adhesion molecule 1) | DRSC05048 | 82990 | 78663 | inactive |
| Dscam1 (Down syndrome cell adhesion molecule 1) | DRSC07407 | 57457 | 74037 | inactive |
| CG9010 | DRSC07320 | 69107 | 62323 | inactive |
| side-IV (sidestep IV) | DRSC14833 | 76480 | 71350 | inactive |
| CG4572 | DRSC15603 | 42407 | 32490 | inactive |
| CG42795 | DRSC12772 | 72850 | 89660 | inactive |
| CG42795 | DRSC15533 | 66717 | 52003 | inactive |
| CG32655 | DRSC18925 | 1.55e5 | 1.78e5 | inactive |
| DCX-EMAP | DRSC10012 | 45897 | 44340 | inactive |
| DCX-EMAP | DRSC10013 | 61053 | 46637 | inactive |
| CG3544 | DRSC00613 | 1.01e5 | 70367 | inactive |
| hfw (halfway) | DRSC18506 | 59130 | 54100 | inactive |
| mbl (muscleblind) | DRSC05657 | 1.24e5 | 1.03e5 | inactive |
| mbl (muscleblind) | DRSC06449 | 50410 | 79820 | inactive |
| Debcl (Death executioner Bcl-2) | DRSC04965 | 59753 | 61320 | inactive |
| CG42813 + CG42814 | DRSC15940 | 53200 | 32510 | inactive |
| Glt (Glutactin) | DRSC03333 | 1.00e5 | 71513 | inactive |
| Lkr (Leucokinin receptor) | DRSC09754 | 62913 | 67457 | inactive |
| Eglp2 (Entomoglyceroporin 2) | DRSC04294 | 74350 | 70593 | inactive |
| cona (corona) | DRSC16281 | 55430 | 92110 | inactive |
| Ist1 | DRSC09697 | 56190 | 39830 | inactive |
| CG17032 | DRSC10241 | 45580 | 34937 | inactive |
| CG15226 (retired record) | DRSC03829 | 80533 | 73687 | inactive |
| CG15226 (retired record) | DRSC04233 | 72617 | 42110 | inactive |
| CG16852 | DRSC01876 | 77487 | 77680 | inactive |
| CG12016 + Dpm2 | DRSC08224 | 27550 | 37650 | inactive |
| hb (hunchback) | DRSC16963 | 52003 | 28310 | inactive |
| CG7156 | DRSC16207 | 35520 | 45153 | inactive |
| CG42615 | DRSC05121 | 88187 | 77607 | inactive |
| CG13841 | DRSC14691 | 44310 | 46480 | inactive |
| CG13564 | DRSC04201 | 46763 | 45663 | inactive |
| Pgant2 (Polypeptide N-Acetylgalactosaminyltransferase 2) | DRSC00587 | 28350 | 26983 | inactive |
| CG15347 | DRSC18031 | 45710 | 51950 | inactive |
| Lamtor1 (Late endosomal/lysosomal adaptor, MAPK and MTOR activator 1) | DRSC10183 | 72573 | 66283 | inactive |
| Toll-4 | DRSC03458 | 47243 | 75913 | inactive |
| CG13559 | DRSC04197 | 47140 | 48370 | inactive |
| mfrn (mitoferrin) | DRSC15687 | 40610 | 29420 | inactive |
| CG9826 | DRSC04570 | 52327 | 70893 | inactive |
| Tep3 (Thioester-containing protein 3) | DRSC03452 | 30140 | 22700 | inactive |
| CG34326 (retired record) | DRSC19165 | 2.18e5 | 2.38e5 | inactive |
